{"source": "patent US8329719B2", "about": "“Neuroprotective agents for the prevention and treatment of neurodegenerative diseases” (Lixte Biotechnology, Inc., priority 2008, dated 2012)", "system": "HDAC", "assay": "HDAC inhibition", "format": "biochemical", "note": "Some results were stated once for a whole list of compounds, not compound by compound.", "data": [{"smiles": "O=C(CCCCCNC(=O)c1ccccc1S)Nc1ccccc1", "note": "[Compound 201]", "values": [{"measurement": "HDAC inhibition", "value": "HDAC inhibitors"}]}, {"smiles": "O=C(NCCCCCCNC(=O)c1ccccc1O)c1ccccc1O", "note": "[Compound 203]", "values": [{"measurement": "HDAC inhibition", "value": "HDAC inhibitors"}]}, {"smiles": "O=C(NCCCCCCNC(=O)c1ccccc1S)c1ccccc1S", "note": "[Compound 204]", "values": [{"measurement": "HDAC inhibition", "value": "HDAC inhibitors"}]}, {"smiles": "O=C(CCCCCNC(=O)c1ccccc1S)Nc1cccnc1", "note": "[Compound 205]", "values": [{"measurement": "HDAC inhibition", "value": "HDAC inhibitors"}]}, {"smiles": "CN(C)c1ccc(NC(=O)CCCCCNC(=O)c2ccccc2S)cc1", "note": "[Compound 206]", "values": [{"measurement": "HDAC inhibition", "value": "HDAC inhibitors"}]}, {"smiles": "O=C(CCCCCNC(=O)c1cc(Cl)ccc1S)Nc1cccnc1", "note": "[Compound 207(a)]", "values": [{"measurement": "HDAC inhibition", "value": "HDAC inhibitors"}]}, {"smiles": "O=C(NCCCCCNC(=O)c1ccccc1S)c1cccnc1", "note": "[Compound 208]", "values": [{"measurement": "HDAC inhibition", "value": "HDAC inhibitors"}]}, {"smiles": "Nc1ccc(NC(=O)CCCCCNC(=O)c2ccccc2S)cc1", "note": "[Compound 209]", "values": [{"measurement": "HDAC inhibition", "value": "HDAC inhibitors"}]}, {"smiles": "O=C(CCCCCNC(=O)c1cc(Cl)ccc1S)Nc1ccccc1", "note": "[Compound 210]", "values": [{"measurement": "HDAC inhibition", "value": "HDAC inhibitors"}]}, {"smiles": "COc1ccc(S)c(C(=O)NCCCCCC(=O)Nc2ccccc2)c1", "note": "[Compound 211]", "values": [{"measurement": "HDAC inhibition", "value": "HDAC inhibitors"}]}, {"smiles": "O=C(CCCCCCNC(=O)c1ccccc1S)Nc1ccccc1", "note": "[Compound 212]", "values": [{"measurement": "HDAC inhibition", "value": "HDAC inhibitors"}]}, {"smiles": "O=C(CCCCCCCNC(=O)c1ccccc1S)Nc1ccccc1", "note": "[Compound 213]", "values": [{"measurement": "HDAC inhibition", "value": "HDAC inhibitors"}]}, {"smiles": "O=C(CCCCCCCCCCNC(=O)c1ccccc1S)Nc1ccccc1", "note": "[Compound 214]", "values": [{"measurement": "HDAC inhibition", "value": "HDAC inhibitors"}]}]}
